Measurements: patent US20240185965A1, “Computational Model and Methods for Selecting Clinical Trial Subjects to Reduce Heterogeneity” (SUNOVION PHARMACEUTICALS INC., priority 2021, published 2024)
At least one structure is not confirmed: it was looked up by name or label, or the drawing left a doubt.

Tested on: subjects with acute schizophrenia
Assay: 5 acute schizophrenia trials of lurasidone, retrospective analysis with MPNS enrichment
Format: in vivo, human
Settings: 5 acute trials; subjects identified prior to randomization

O=C1[C@@H]2[C@H]3CC[C@H](C3)[C@@H]2C(=O)N1C[C@@H]1CCCC[C@H]1CN1CCN(c2nsc3ccccc23)CC1 [lurasidone]
improvements on negative symptoms: specificity for the subpopulation having the maximum MPNS construct: appeared to lack specificity for this subpopulation
